For three substances, binding results are on record in publication doi:10.1101/2021.09.09.459568.

Protein sequences, listed by entry. Tags and fused reporters are not part of them. Residues count along the entry.
UniProt Q80U70: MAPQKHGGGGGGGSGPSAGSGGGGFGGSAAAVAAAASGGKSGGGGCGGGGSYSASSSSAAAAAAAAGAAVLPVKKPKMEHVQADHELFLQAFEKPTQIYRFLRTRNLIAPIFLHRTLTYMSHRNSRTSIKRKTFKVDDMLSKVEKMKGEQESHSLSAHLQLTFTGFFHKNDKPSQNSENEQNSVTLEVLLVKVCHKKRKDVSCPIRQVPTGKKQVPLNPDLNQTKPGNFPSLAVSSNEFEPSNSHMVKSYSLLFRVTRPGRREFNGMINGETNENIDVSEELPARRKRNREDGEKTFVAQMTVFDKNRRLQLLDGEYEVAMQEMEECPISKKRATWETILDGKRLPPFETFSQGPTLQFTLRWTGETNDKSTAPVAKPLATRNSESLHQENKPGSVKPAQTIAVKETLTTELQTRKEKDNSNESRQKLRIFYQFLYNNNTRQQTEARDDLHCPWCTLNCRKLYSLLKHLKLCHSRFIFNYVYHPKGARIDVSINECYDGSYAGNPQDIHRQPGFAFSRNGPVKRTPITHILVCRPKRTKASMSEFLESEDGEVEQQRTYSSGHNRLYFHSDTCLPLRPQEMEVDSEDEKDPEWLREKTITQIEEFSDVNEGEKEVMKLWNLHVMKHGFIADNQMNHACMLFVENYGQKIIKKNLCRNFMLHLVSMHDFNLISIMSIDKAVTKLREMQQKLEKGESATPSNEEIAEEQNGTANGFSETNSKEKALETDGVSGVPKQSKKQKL
UniProt O09106: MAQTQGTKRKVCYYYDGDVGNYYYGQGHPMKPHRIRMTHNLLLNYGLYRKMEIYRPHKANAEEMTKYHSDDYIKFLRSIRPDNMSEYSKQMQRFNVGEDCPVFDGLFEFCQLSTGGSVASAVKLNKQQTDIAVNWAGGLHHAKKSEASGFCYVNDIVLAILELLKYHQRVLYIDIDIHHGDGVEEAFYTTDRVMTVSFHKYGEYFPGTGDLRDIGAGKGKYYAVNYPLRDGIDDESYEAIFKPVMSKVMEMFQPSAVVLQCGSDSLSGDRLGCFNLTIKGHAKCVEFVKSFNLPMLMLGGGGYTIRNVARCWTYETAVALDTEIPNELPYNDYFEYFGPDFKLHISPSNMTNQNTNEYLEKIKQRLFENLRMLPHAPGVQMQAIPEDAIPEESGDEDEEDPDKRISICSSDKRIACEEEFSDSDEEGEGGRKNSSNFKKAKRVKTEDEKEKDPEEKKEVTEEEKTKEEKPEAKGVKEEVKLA
UniProt Q921E6: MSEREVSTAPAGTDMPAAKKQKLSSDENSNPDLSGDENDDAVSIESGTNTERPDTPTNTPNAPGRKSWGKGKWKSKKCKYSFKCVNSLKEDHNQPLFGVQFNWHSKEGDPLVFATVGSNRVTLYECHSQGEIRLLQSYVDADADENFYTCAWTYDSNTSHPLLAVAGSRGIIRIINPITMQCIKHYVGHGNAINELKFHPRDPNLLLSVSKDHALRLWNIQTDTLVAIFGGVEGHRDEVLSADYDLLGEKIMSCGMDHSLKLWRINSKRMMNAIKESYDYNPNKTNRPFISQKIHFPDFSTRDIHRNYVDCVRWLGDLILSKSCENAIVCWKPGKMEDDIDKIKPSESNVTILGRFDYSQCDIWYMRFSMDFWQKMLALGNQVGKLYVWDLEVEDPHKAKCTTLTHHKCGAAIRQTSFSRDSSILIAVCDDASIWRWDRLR
UniProt Q8K4B0: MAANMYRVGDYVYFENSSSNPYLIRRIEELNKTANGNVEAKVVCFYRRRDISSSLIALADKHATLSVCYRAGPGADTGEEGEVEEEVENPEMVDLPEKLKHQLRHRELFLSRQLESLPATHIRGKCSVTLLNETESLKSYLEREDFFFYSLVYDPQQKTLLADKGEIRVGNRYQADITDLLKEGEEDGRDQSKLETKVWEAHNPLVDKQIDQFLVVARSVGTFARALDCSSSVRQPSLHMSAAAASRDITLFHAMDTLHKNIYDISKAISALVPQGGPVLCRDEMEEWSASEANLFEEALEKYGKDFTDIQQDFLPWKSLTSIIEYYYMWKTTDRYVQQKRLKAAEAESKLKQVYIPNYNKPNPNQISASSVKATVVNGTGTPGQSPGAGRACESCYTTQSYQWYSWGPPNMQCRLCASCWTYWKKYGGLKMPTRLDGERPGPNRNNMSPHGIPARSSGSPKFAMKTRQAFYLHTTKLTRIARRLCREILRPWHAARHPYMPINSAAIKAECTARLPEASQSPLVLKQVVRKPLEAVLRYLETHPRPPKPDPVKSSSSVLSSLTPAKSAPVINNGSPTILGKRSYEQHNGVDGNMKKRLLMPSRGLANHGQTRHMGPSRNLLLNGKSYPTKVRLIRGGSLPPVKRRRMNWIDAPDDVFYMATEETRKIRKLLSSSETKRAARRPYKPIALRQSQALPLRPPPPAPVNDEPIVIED
UniProt Q60972, residues 1-126: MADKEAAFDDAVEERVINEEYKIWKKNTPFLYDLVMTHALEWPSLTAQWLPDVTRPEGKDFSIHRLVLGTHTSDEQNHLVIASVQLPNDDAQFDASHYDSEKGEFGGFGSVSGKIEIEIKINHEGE

Results are given in words; binding and its absence hold for the method and conditions named. Binding seen in cells or lysates may run through a third protein. Some results given as binding are weak or reduced against the parent protein; the word gives no strength.

Common to all, as to assay: co-IP
The target of assay [1] is SUZ12 (endogenous in mouse ESCs) (mouse (endogenous in E14 ESCs)) (UniProt Q80U70).
Assay [2] has as its target HDAC1 (endogenous in mouse ESCs) (mouse (endogenous in E14 ESCs)) (UniProt O09106).
For assay [3], the target named is SUZ12 (partner in the mapping co-IP of Figure 2B) (UniProt Q80U70).

As to “EED (endogenous in mouse ESCs) (from UniProt Q921E6 1-441)”, the binding entry in assay [1] is reported as “binds”.

With “MTA1 (endogenous in mouse ESCs) (from UniProt Q8K4B0 1-715)”, in assay [2], the binding entry is “binds”.

For the substance “RBBP4 most N-terminal segment (1-126 aa) (from UniProt Q60972 1-126) (domain or fragment)”, in assay [3], the binding result was “binds”.
